# In PubChem BioAssay AID445 (National Center for Advancing Translational Sciences (NCATS), 2006):
# The list shows a part of the results. Further columns of the screen follow, without active or inactive calls. Compounds called inactive in the main read-out are mostly missing here. Potencies come from curve fits of mixed quality, noted in brackets.
# Assay: IkB Signaling
# Settings: ABC-DLBCL IkBa-CBG/CBR dual luciferase ratio (green luciferase fused to IkBa over red control in OCI-Ly3 lymphoma cells), 4 h
# In short: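 Curves were fitted separately to fusion (green), unfused (red) and ratio luminescence, then classed by r2, magnitude and activity. Cells: OCI-Ly3, 4 h compound plus doxycycline at 37C; 10 uM MG-132 defined full response.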
# [1] = measured here: control luc red channel unless noted
# [2] = measured here: IkB-luc green channel
# [3] = measured here: control luc red channel
compound,measurement,setting,value
Fc1ccc(Nc2c(-c3c[nH]c4ccccc34)nc3ccccn23)cc1,AC50,[1],"0.01 µM [falling, full curve]"
Cc1ccc(C(=O)Nc2nnc(S(=O)(=O)N3CCCc4ccccc43)s2)cc1,AC50,[1],"3.16 µM [rising, partial curve]"
CC1=C(C(=O)Nc2ccccc2)C(c2ccco2)C(C#N)=C(SCC(=O)OC(C)C)N1 (configuration not stated),AC50,[1],"3.98 µM [falling, partial curve]"
COc1ccc(CCNC(=O)c2ccc(CSCc3ccc(C)cc3)o2)cc1OC,AC50,[1],"25.1 µM [falling, partial curve]"
COCCCNC(=O)C1CCN(C(=O)c2cc3sccc3n2Cc2ccc(Cl)cc2)CC1,AC50,[1],"39.8 µM [falling, single point]"
Cc1cccc(CSc2ccc3nnc(CCNS(=O)(=O)c4ccccc4)n3n2)c1,AC50,[1],"12.6 µM [falling, partial curve]"
COc1ccc(OC)c(-n2cnc3cc(C(=O)NC4CCCC4)ccc32)c1,AC50,[1],"3.16 µM [falling, partial curve, poor fit]"
Cc1oc(-c2ccccc2)nc1CNS(=O)(=O)c1ccc(Cl)cc1,AC50,[1],"15.8 µM [falling, partial curve]"
CCCOc1ccc(NC(=O)CC2C(=O)N(c3cccc(C)c3)C(=O)N2CCc2ccncc2)cc1 (configuration not stated),AC50,[1],"31.6 µM [falling, single point]"
Cc1cccc(-c2nc(N3CCN(c4ccc(F)cc4)CC3)c3ccccc3n2)c1,AC50,[1],"20 µM [falling, single point]"
COc1ccc(Nc2nc3c(S(=O)(=O)c4ccccc4)nnn3c3ccc(Cl)cc23)cc1OC,AC50,[1],"3.16 µM [rising, full curve]"
Cc1ccc(-n2c(=O)c3c(cnn3C)n(CC(=O)Nc3cc(C)ccc3C)c2=O)cc1,AC50,[1],"6.31 µM [falling, full curve, poor fit]"
CN(C)c1ccc(C(=O)Nc2nc3c(s2)CCCC3)cc1,AC50,[2],"39.8 µM [rising, single point]"
same,AC50,[3],"5.01 µM [falling, partial curve]"
O=C(CCSCc1cnn(-c2ccccc2)c1-n1cccc1)NCc1ccc(Cl)cc1,AC50,[1],"39.8 µM [falling, single point]"
COc1ccc2[nH]c(=O)c3c(c2c1)OC(C)(C)C=C3,AC50,[2],"6.31 µM [falling, partial curve]"
same,AC50,[3],"3.98 µM [falling, partial curve]"
Cc1ccc(NC(=O)Cn2cc(C(=O)c3cccs3)c3ccccc32)cc1C,AC50,[1],"3.98 µM [falling, partial curve]"
Cc1ccc(C(=O)c2cn(Cc3cccc(F)c3)c3nc(C)ccc3c2=O)cc1,AC50,[1],"25.1 µM [falling, single point]"
COc1ccc(-c2c(NC(C)=O)n(C)c3ccccc3c2=O)cc1,AC50,[1],"15.8 µM [falling, partial curve]"
O=C(CCn1cccn1)Nc1cccc(C(F)(F)F)c1,AC50,[1],"10 µM [rising, partial curve]"
Cc1cccc(NS(=O)(=O)c2ccc(Cl)c(C(=O)Nc3ccccc3C)c2)c1,AC50,[1],"12.6 µM [falling, partial curve]"
Cc1ccc(NC(=O)c2cc(-c3ccco3)on2)cc1C,AC50,[1],"5.01 µM [falling, partial curve]"
CCCN(Cc1cccs1)C(=O)Nc1ccc(Br)c(C)c1,AC50,[1],"25.1 µM [falling, single point]"
CC(C)Cn1c(-c2ccc(S(=O)(=O)N3CCCC3)cc2)csc1=Nc1ccccc1,AC50,[1],"5.01 µM [falling, full curve]"
COc1cccc(-n2c(SCC(=O)Nc3ccc(F)cc3F)nc3c([nH]c4ccccc43)c2=O)c1,AC50,[1],"0.794 µM [rising, full curve]"
c1csc(-c2nc3ccccn3c2Nc2ccc3c(c2)OCCO3)c1,AC50,[1],"25.1 µM [falling, single point]"
COc1ccccc1CNC(=O)c1cccc(NC(=O)N2CCSc3ncccc32)c1,AC50,[1],"12.6 µM [falling, partial curve]"
CCCCOC(=O)c1ccc(NC(=O)CSc2nc3c(c(=O)[nH]2)CCC3)cc1,AC50,[1],"25.1 µM [falling, partial curve]"
COC(=O)c1c(-c2ccc(Cl)cc2)noc1N1CCN(c2cccc(OC)c2)CC1,AC50,[1],"3.16 µM [falling, partial curve]"
CCOc1ccccc1C(=O)NCC(c1ccc(N(C)C)cc1)N1CCc2ccccc21 (configuration not stated),AC50,[1],"12.6 µM [falling, partial curve]"
CCOC(=O)c1cccc(Nc2nc(C(=O)OCC)nc3ccccc23)c1,AC50,[1],"39.8 µM [falling, single point]"
COc1ccc(CCNC(=O)CSc2nnc(CNc3ccc(Cl)cc3)o2)cc1OC,AC50,[1],"39.8 µM [falling, single point]"
Cc1ccc(-n2ncc3c(NCCCn4ccnc4)ncnc32)cc1,AC50,[1],"1.58 µM [falling, partial curve]"
Cc1ccc(NC(=O)c2cc(-c3cccs3)on2)cc1C,AC50,[1],"10 µM [falling, partial curve]"
CCN1CCN(CCCNC(=O)c2cnn(-c3ccc(C)cc3)c2C2CCN(C(=O)OC(C)(C)C)CC2)CC1,AC50,[1],"39.8 µM [falling, partial curve, poor fit]"
Cc1cc(C)cc(NC(=O)c2ccc3c(O)c(S(=O)(=O)c4ccccc4)c(=O)[nH]c3c2)c1,AC50,[1],"10 µM [falling, partial curve]"
COc1cc(Cl)c(C)cc1NC(=O)c1ccc(CN2C(=O)CCn3nc(C)cc32)cc1,AC50,[1],"10 µM [falling, partial curve]"
Cc1c(Cl)cccc1NC(=O)CSc1ncc(S(=O)(=O)c2ccc(C(C)C)cc2)c(=O)[nH]1,AC50,[1],"15.8 µM [falling, partial curve]"
c1ccc(-c2cc(CSc3nc4ccccc4[nH]3)on2)cc1,AC50,[1],"7.94 µM [falling, partial curve]"
CCCCOC(=O)c1ccc(NC(=O)Cc2coc3c(C)c(C)ccc23)cc1,AC50,[1],"0.631 µM [falling, full curve]"
Cc1cc(C)c2c(N)c(S(=O)(=O)c3ccccc3)sc2n1,AC50,[1],"7.94 µM [falling, partial curve]"

# Reformatted bar-delimited: entries from further up.
compound | measurement | setting | value
O=C(CCn1cccn1)Nc1cccc(C(F)(F)F)c1 | AC50 | [1] | 10 µM [rising, partial curve]
CCCCOC(=O)c1ccc(NC(=O)CSc2nc3c(c(=O)[nH]2)CCC3)cc1 | AC50 | [1] | 25.1 µM [falling, partial curve]
COc1cc(Cl)c(C)cc1NC(=O)c1ccc(CN2C(=O)CCn3nc(C)cc32)cc1 | AC50 | [1] | 10 µM [falling, partial curve]
